{"source": "PubChem BioAssay AID652243 (Drosophila RNAi Screening Center, 2013)", "purpose": "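Fly genes required for human androgen receptor driven transcription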 (primary screen)", "cell system": "Drosophila S2R+ cells", "reagents": "long dsRNA against Drosophila genes", "duration": "72 h (48 h, then 24 h hormone)", "treatment": "synthetic androgen R1881 at 10 nM for 24 h", "read-out": "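Per-well raw luminescence of the androgen-driven firefly reporter and of the Renilla control, two replicates each, without normalisation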", "direction": "firefly reporter light: higher = more light from androgen-responsive reporter; Renilla control light: higher = more constitutive control signal (cell number, transfection)", "rule for the call": "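Across duplicate plates, a knock-down whose log firefly/Renilla ratio shifted a set fold down or up from the GFP/LacZ control mean was a hit; the downward cut appears as both 1.5 and 3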", "meaning of the calls": "active = hit: reporter lowered or raised; inactive = no hit", "note": "In all, the deposit lists about 24,000 reagents; below is an unselected part of those that have a named target and a result. In the full data, 246 (1%) were called active. 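Plates not normalised; calls are printed but the firefly/Renilla ratio behind them is not deposited; fold cut for lowering reported inconsistently.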 The raw values are shown without normalisation. A plus sign joins genes that one reagent is predicted to hit. Reagent sequences are not shown. Not given: the amount of reagent."}
{"gene": "CG10513", "amplicon": "DRSC14248", "firefly reporter light, replicate 1": 66258, "firefly reporter light, replicate 2": 94665, "Renilla control light, replicate 1": 7.89e5, "Renilla control light, replicate 2": 1.00e6, "Call": "inactive"}
{"gene": "CG31659", "amplicon": "DRSC00760", "firefly reporter light, replicate 1": 1.05e5, "firefly reporter light, replicate 2": 1.15e5, "Renilla control light, replicate 1": 8.75e5, "Renilla control light, replicate 2": 1.04e6, "Call": "inactive"}
{"gene": "CG13751", "amplicon": "DRSC06422", "firefly reporter light, replicate 1": 3.74e5, "firefly reporter light, replicate 2": 2.99e5, "Renilla control light, replicate 1": 2.38e6, "Renilla control light, replicate 2": 1.74e6, "Call": "inactive"}
{"gene": "CG32269 + CG32270", "amplicon": "DRSC08195", "firefly reporter light, replicate 1": 1.04e5, "firefly reporter light, replicate 2": 91793, "Renilla control light, replicate 1": 1.47e6, "Renilla control light, replicate 2": 1.82e6, "Call": "inactive"}
{"gene": "CG33458", "amplicon": "DRSC22891", "firefly reporter light, replicate 1": 8.59e5, "firefly reporter light, replicate 2": 8.31e5, "Renilla control light, replicate 1": 2.04e6, "Renilla control light, replicate 2": 2.68e6, "Call": "inactive"}
{"gene": "LManV", "amplicon": "DRSC03223", "firefly reporter light, replicate 1": 1.95e6, "firefly reporter light, replicate 2": 8.68e5, "Renilla control light, replicate 1": 3.56e6, "Renilla control light, replicate 2": 1.61e6, "Call": "inactive"}
{"gene": "LManV", "amplicon": "DRSC24176", "firefly reporter light, replicate 1": 7.71e5, "firefly reporter light, replicate 2": 8.07e5, "Renilla control light, replicate 1": 1.08e6, "Renilla control light, replicate 2": 1.06e6, "Call": "inactive"}
{"gene": "CG30159", "amplicon": "DRSC04981", "firefly reporter light, replicate 1": 6.27e5, "firefly reporter light, replicate 2": 7.37e5, "Renilla control light, replicate 1": 2.06e6, "Renilla control light, replicate 2": 2.01e6, "Call": "inactive"}
{"gene": "CG30159", "amplicon": "DRSC26683", "firefly reporter light, replicate 1": 3.16e5, "firefly reporter light, replicate 2": 2.51e5, "Renilla control light, replicate 1": 7.72e5, "Renilla control light, replicate 2": 6.84e5, "Call": "inactive"}
{"gene": "Jon65Aiii", "amplicon": "DRSC10649", "firefly reporter light, replicate 1": 7.91e5, "firefly reporter light, replicate 2": 9.92e5, "Renilla control light, replicate 1": 8.17e5, "Renilla control light, replicate 2": 1.68e6, "Call": "inactive"}
{"gene": "Jon65Aiii", "amplicon": "DRSC25428", "firefly reporter light, replicate 1": 5.37e5, "firefly reporter light, replicate 2": 6.75e5, "Renilla control light, replicate 1": 4.54e5, "Renilla control light, replicate 2": 5.50e5, "Call": "inactive"}
{"gene": "wisp", "amplicon": "DRSC23092", "firefly reporter light, replicate 1": 6.24e5, "firefly reporter light, replicate 2": 8.00e5, "Renilla control light, replicate 1": 1.17e6, "Renilla control light, replicate 2": 1.34e6, "Call": "inactive"}
{"gene": "wisp", "amplicon": "DRSC25917", "firefly reporter light, replicate 1": 3.65e5, "firefly reporter light, replicate 2": 2.77e5, "Renilla control light, replicate 1": 7.89e5, "Renilla control light, replicate 2": 6.44e5, "Call": "inactive"}
{"gene": "CG12025", "amplicon": "DRSC08230", "firefly reporter light, replicate 1": 86933, "firefly reporter light, replicate 2": 68948, "Renilla control light, replicate 1": 1.07e6, "Renilla control light, replicate 2": 1.10e6, "Call": "inactive"}
{"gene": "CG30083", "amplicon": "DRSC05572", "firefly reporter light, replicate 1": 1.56e5, "firefly reporter light, replicate 2": 1.34e5, "Renilla control light, replicate 1": 2.97e5, "Renilla control light, replicate 2": 2.89e5, "Call": "inactive"}
{"gene": "Mabi", "amplicon": "DRSC02489", "firefly reporter light, replicate 1": 5.61e5, "firefly reporter light, replicate 2": 7.79e5, "Renilla control light, replicate 1": 1.76e6, "Renilla control light, replicate 2": 1.67e6, "Call": "inactive"}
{"gene": "Mabi", "amplicon": "DRSC29933", "firefly reporter light, replicate 1": 4.34e5, "firefly reporter light, replicate 2": 2.79e5, "Renilla control light, replicate 1": 1.04e6, "Renilla control light, replicate 2": 1.33e6, "Call": "inactive"}
{"gene": "CG18324", "amplicon": "DRSC06721", "firefly reporter light, replicate 1": 6.88e5, "firefly reporter light, replicate 2": 7.09e5, "Renilla control light, replicate 1": 1.63e6, "Renilla control light, replicate 2": 1.44e6, "Call": "inactive"}
{"gene": "CG18324", "amplicon": "DRSC26600", "firefly reporter light, replicate 1": 2.80e5, "firefly reporter light, replicate 2": 2.35e5, "Renilla control light, replicate 1": 5.72e5, "Renilla control light, replicate 2": 6.80e5, "Call": "inactive"}
{"gene": "pes", "amplicon": "DRSC03033", "firefly reporter light, replicate 1": 2.12e5, "firefly reporter light, replicate 2": 1.54e5, "Renilla control light, replicate 1": 1.59e6, "Renilla control light, replicate 2": 1.46e6, "Call": "inactive"}
{"gene": "pes", "amplicon": "DRSC25954", "firefly reporter light, replicate 1": 3.03e5, "firefly reporter light, replicate 2": 3.32e5, "Renilla control light, replicate 1": 6.45e5, "Renilla control light, replicate 2": 6.78e5, "Call": "inactive"}

Individual results from above:
Under “firefly reporter light, replicate 2”, CG30159 [DRSC26683] has 2.51e5
CG30083 [DRSC05572], firefly reporter light, replicate 2 = 1.34e5
